Experimental data published in patent EP2727627B1, “Oral and dental care and cleaning agents with Tocopherol acetate” (priority 2012, dated 2014).
At least one read-out could not be matched to a standard name with certainty.

System: Gingiva Fibroblasten
Assay: ATP determination with ATPLite-M assay (cell energy content)
Type: cell-based
Details: 24 h treatment, versus untreated control (100,0)
From the text: ATP (Adenosintriphosphat) ist die universelle Speicherform für chemische Energie in Zellen. Die ATP-Bestimmung erfolgt mit Hilfe des ATPLiteTM-M Assays (Packard). Das Testprinzip dieses Assays beruht darauf, dass die Luciferase von Photinus pyralis eine Reaktion katalysiert, bei der in Gegenwart von ATP D-Luciferin in Oxyluciferin umgewandelt wird. Bei dieser Reaktion wird grünes Licht emittiert, das mit einem Luminometer gemessen werden kann. Das emittierte Biolumineszenzlicht ist proportional zur Menge des vorhandenen ATP. Zur Bestimmung der ATP-Aktivität in Gingiva Fibroblasten werden diese in geeigneter Weise unter Erhalt ihrer spezifischen Eigenschaften vorkultiviert (DE10162814) und in eine 96well-Zellkulturschale überführt. Die Behandlung mit dem Substanzgemisch erfolgte über 24 Stunden gegen eine unbehandelte Kontrolle. Anschließend wurden die Zellen mit jeweils 50 µl/Kavität eines im Testkit enthaltenen Lysepuffer für 5 min auf einem Schüttler lysiert. Danach wurden die Zellen für weitere 5 min mit jeweils 50 µl/Kavität mit der mitgelieferten Substratlösung auf dem Schüttler inkubiert und anschließend das Reaktionsgemisch in eine schwarze Mikrotiterplatte überführt. Nach einer Inkubationszeit von 10 min in der Dunkelheit erfolgte die Messung. Tabelle 2: Einfluss von Tocopherylacetat auf den Zellenergieinhalt

SMILES: CC(=O)Oc1c(C)c(C)c2c(c1C)CCC(C)(CCCC(C)CCCC(C)CCCC(C)C)O2 (stereo not drawn) [Tocopherylacetat]
- ATP-Gehalt [%] Mittelwert (Konz. 0,01 Gew.-%): 128,5%
- ATP-Gehalt [%] Mittelwert (Konz. 0,0025 Gew.-%): 125,4%
- ATP-Gehalt [%] Mittelwert (Konz. 0,005 Gew.-%): 138,9%
